This is one part of the list.
Tests used:
Experiment in all cases: protein microarray (ProtoArray v5.0), streptavidin-Alexa Fluor 647
Conditions in all cases: 3'-biotin; 20 mM Tris (pH 7.5), 5 mM MgCl2, 100 mM KCl, 0.1% Tween-20, A/T-rich and random oligonucleotide blockers; temperature not stated; high values mean tight binding
Galectin-3 (human) = system: Galectin-3 (human)
[1] = system: Ganglioside GM2 activator (human)
[2] = system: Geranylgeranyl pyrophosphate synthetase (human)
[3] = system: Glucose-6-phosphate translocase (human)
[4] = system: Glucose-fructose oxidoreductase domain-containing protein 1 (human)
[5] = system: Glutamate decarboxylase 1 (human)
[6] = system: Glutamate decarboxylase 2 (human)
[7] = system: Glutaminyl-tRNA synthetase (human)
[8] = system: Glutathione S-transferase A4 (human)
[9] = system: Glutathione S-transferase Mu 5 (human)
[10] = system: Glycolipid transfer protein (human)
[11] = system: Glycosyltransferase 1 domain-containing protein 1 (human)
[12] = system: Guanine nucleotide exchange factor for Rab3A (human)
[13] = system: Guanine nucleotide-binding protein subunit alpha-11 (human)
[14] = system: Guanylate cyclase activator 2B (human)
HAAO (human) = system: HAAO (human)
HAS3 (human) = system: HAS3 (human)
HAVCR2 (human) = system: HAVCR2 (human)
HAX1 (human) = system: HAX1 (human)
HBD (human) = system: HBD (human)

Q: Which binding signal (Galectin-3 (human)) does the source give for “GGTGACAGGGGTATGGGGAGGGG [G4-2 biotinylated (Ct1)]” here?
A: -0.393 z-score

Q: And the binding signal [1]?
A: -0.379 z-score

Q: What about the binding signal [2] of the same sequence?
A: -0.395 z-score

Q: And the binding signal [3]?
A: -0.389 z-score

Q: What about the binding signal [4] of the same sequence?
A: -0.397 z-score

Q: And the binding signal [5]?
A: -0.38 z-score

Q: And the binding signal [6]?
A: -0.391 z-score

Q: And the binding signal [7]?
A: -0.393 z-score

Q: And the binding signal [8]?
A: -0.39 z-score

Q: What about the binding signal [9] of the same sequence?
A: -0.393 z-score

Q: And the binding signal [10]?
A: -0.4 z-score

Q: And the binding signal [11]?
A: -0.359 z-score

Q: What about the binding signal [12] of the same sequence?
A: -0.375 z-score

Q: What about the binding signal [13] of the same sequence?
A: -0.376 z-score

Q: What about the binding signal [14] of the same sequence?
A: -0.37 z-score

Q: And the binding signal (HAAO (human))?
A: -0.399 z-score

Q: What about the binding signal (HAS3 (human)) of the same sequence?
A: -0.378 z-score

Q: And the binding signal (HAVCR2 (human))?
A: -0.391 z-score

Q: And the binding signal (HAX1 (human))?
A: -0.377 z-score

Q: And the binding signal (HBD (human))?
A: -0.373 z-score

Source: paper PMC5996148
